The record followed here is publication PMC8610276.

Experiment [1] concerns the target T1, MOV10, helicase and RNA-binding protein (rat) (rat (endogenous in hippocampus and in cultured hippocampal neurons)) (UniProt D3ZUC2).
T1 sequence: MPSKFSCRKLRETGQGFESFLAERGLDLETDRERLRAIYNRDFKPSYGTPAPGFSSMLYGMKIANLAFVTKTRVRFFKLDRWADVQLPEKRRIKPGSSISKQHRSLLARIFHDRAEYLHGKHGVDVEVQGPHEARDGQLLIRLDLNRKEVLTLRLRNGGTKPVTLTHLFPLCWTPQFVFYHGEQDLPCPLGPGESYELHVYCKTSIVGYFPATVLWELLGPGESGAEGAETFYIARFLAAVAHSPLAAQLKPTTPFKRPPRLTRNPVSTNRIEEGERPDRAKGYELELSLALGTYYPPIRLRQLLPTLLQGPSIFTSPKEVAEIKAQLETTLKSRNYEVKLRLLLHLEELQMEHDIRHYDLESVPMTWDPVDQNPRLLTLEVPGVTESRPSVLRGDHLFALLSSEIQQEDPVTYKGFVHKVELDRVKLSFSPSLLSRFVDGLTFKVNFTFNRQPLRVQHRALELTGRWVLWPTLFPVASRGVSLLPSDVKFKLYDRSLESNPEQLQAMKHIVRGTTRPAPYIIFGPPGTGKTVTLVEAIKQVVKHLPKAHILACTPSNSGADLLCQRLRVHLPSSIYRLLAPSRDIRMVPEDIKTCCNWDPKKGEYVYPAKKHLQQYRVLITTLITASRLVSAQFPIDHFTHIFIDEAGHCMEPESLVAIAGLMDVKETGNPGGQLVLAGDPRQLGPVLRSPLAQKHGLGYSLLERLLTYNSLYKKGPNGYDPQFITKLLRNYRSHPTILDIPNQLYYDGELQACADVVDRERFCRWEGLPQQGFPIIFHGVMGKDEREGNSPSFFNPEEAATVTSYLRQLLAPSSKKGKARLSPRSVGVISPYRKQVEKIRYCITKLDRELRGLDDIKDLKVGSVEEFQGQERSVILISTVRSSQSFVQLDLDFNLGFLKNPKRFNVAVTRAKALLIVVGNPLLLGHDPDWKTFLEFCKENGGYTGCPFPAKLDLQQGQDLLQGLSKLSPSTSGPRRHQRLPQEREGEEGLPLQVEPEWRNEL
The experiment can be described thus: co-IP; MOV10 antibody (5 ug) or rabbit IgG with protein G-agarose on post-mitochondrial supernatant of adult SD rat hippocampi; lysis in 50 mM Tris pH 7.5, 150 mM NaCl, 1% NP-40, 2 mM EDTA with RNase inhibitor; washes with 150 and 300 mM NaCl; 4°C; western blot.

For experiment [2], the target named is Argonaute (Ago) (rat) (rat (endogenous in hippocampus and in cultured hippocampal neurons)). Put plainly: co-IP; pan-Ago antibody with protein G-agarose on lysates of cultured rat hippocampal neurons treated with bicuculline (10 uM) or vehicle for 24 hours; 20 mM Tris-HCl, 200 mM NaCl, 2.5 mM MgCl2, 1% NP-40, RNase inhibitor; 4°C; western blot. (In general: Immunoblotting shows a protein as a band on a membrane.)

No constants are given. Whether binding was seen depends on the method and setting. In cells and extracts the contact can be indirect. Binding calls can cover weak binding; strength is not graded here.

Consider Argonaute (Ago) (rat), for which the binding entry in experiment [1] was “binds”.

B1: MOV10, helicase and RNA-binding protein (rat) (protein, UniProt D3ZUC2 1-1004)
chain: T1 sequence
For B1, in experiment [2], the binding result is “binds”.

B2: Trim32, E3 ligase (rat) (protein, UniProt Q66H79 1-655)
chain: MAAAAAASHLNLDALREVLECPICMESFTEEQLRPKLLHCGHTICRQCLEKLLASSINGVRCPFCSKITRITSLTQLTDNLTVLKIIDTAGLSEAVGLLMCRACGRRLPRQFCRSCGLVLCEPCREADHQPPGHCTLPVKEAAEERRRDFGEKLTRLRELTGELQRRKAALEGVSRDLQARYKAVLQEYGHEERRVQEELARSRKFFTGSLAEVEKSNSQVVEEQSYLLNIAEVQAVSRCDYFLAKIKQADVALLEETADEEEPELTASLPRELTLQDVELLKVGHVGPLQIGQAVKKPRTVNMEDSWAVEEGAASSASASVTFREMDMSPEEVVPSPRASPAKQRSSEAASSIQQCLFLKKMGAKGSTPGMFNLPVSLYVTSQSEVLVADRGNYRIQVFNRKGFLKEIRRSPSGIDSFVLSFLGADLPNLTPLSVAMNCHGLIGVTDSYDNSLKVYTLDGHCVACHRSQLSKPWGITALPSGQFVVTDVEGGKLWCFTVDRGAGVVKYSCLCSAVRPKFVTCDAEGTVYFTQGLGLNVENRQNEHHLEGGFSIGSVGPDGQLGRQISHFFSENEDFRCIAGMCVDARGDLIVADSSRKEILHFPKGGGYSVLIREGLTCPVGIALTPKGQLLVLDCWDHCVKIYSYHLRRYSTP
Consider B2, for which the binding result in experiment [2] was “binds”.
